Experimental data taken from patent US20200385459A1 (University of Texas, published 2020).
Residue numbers refer to the chain shown, from its start. These are yes or no findings as the source states them, for the method shown. Some entries that bind do so weakly or less than the wild type. Sequences can lack the tags named with a protein.

T1: His-tagged recombinant human LRP10 protein, LRP10-516H (human) (UniProt Q7Z4F1)
T1 sequence (looked up): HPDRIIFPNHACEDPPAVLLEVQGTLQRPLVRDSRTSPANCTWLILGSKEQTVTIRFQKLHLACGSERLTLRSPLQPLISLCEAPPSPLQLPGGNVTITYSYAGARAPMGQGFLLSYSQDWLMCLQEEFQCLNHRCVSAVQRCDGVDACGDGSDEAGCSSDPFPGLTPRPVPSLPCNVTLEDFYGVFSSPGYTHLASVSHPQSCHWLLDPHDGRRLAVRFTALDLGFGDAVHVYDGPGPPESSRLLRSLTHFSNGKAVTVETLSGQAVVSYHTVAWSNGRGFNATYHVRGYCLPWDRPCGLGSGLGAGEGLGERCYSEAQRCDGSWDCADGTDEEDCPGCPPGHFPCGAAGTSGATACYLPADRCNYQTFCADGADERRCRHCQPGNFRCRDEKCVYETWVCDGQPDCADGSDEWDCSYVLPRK

B1: Clone 1 (AB1) (antibody, V domains shown)
VH: EVQLLESGGGLVQPGGSLRLSCAASGFTFSSQAMSWVRQAPGKGLEWVSSIPPGGPNTKYADSVKGRFTISRDNSKNTLYLQMNSLRAEDTAVYYCAKSYPSFDYWGQGTLVTVSS
VL: DIQMTQSPSSLSASVGDRVTITCRASQSISSYLNWYQQKPGKAPKLLIYNASDLQSGVPSRFSGSGSGTDFTLTISSLQPEDFATYYCQQSSRTPTTFGQGTKVEIK
notes: also called AB1 (L1 + H1); AB1: L1 + H1
B2: Clone 2 (AB2) (antibody, human IgG1, V domains shown)
VH: B1 VH
VL: B1 VL with N50A, D53P, S91V, S92A, T96N
notes: Expressed as a full antibody in 293F cells, protein A purified; also called AB2 (L2 + H1); AB2: L2 + H1
B3: Clone 8 (AB8) (antibody, human IgG1, V domains shown)
VH: B1 VH with P14L
VL: B1 VL
notes: Expressed as a full antibody in 293F cells, protein A purified; also called AB8 (L1 + H7); AB (L1 + H7)
B4: Clone 3 (AB3) (antibody, human IgG1, V domains shown)
VH: EVQLLESGGGLVQPGGSLRLSCAASGFTFSSYAMSWVRQAPGKGLEWVSQIGTMGRPTTYADSVKGRFTISRDNSKNTLYLQMNSLRAEDTAVYYCAKSGKKFDYWGQGTLVTVSS
VL: B1 VL with N50R, D53R, S91P, S92T, R93S, T94L, T96L
notes: Expressed as a full antibody in 293F cells, protein A purified; also called AB3 (L3 + H2); AB3: L3 + H2
B5: Clone 7 (AB7) (antibody, human IgG1, V domains shown)
VH: B4 VH with Q50S, G52A, M54T, R56N, P57T, T59Y, S99N, G100T, K101A, K102T
VL: B1 VL with N50A, D53T, S91N, S92D, R93Y, T94Y
notes: Expressed as a full antibody in 293F cells, protein A purified; also called AB7 (L7 + H6); AB7: L7 + H6

target: T1, His-tagged recombinant human LRP10 protein, LRP10-516H (human); assay: ELISA on coated LRP10

Binder	binding
B1	binds
B2	binds
B3	binds
B4	binds
B5	binds
